This assay has as its target GAL4 DNA binding domain-TOPBP1 (residues 2-1523) (human). The assay is described as follows: yeast two-hybrid (GAL4 AD-CIP2A 1-560 with GAL4 BD-TOPBP1).

In US20220153793A1 one finds binding data, which are given here for one substance.

No constants are given. Whether binding was seen depends on the method and setting. Some binding calls cover weakened binding; strength is not graded here.

In the case of “GAL4 activation domain-CIP2A (1-560) (from UniProt Q8TCG1 1-560)”, the binding entry is given as “binds”.
